Earlier results, collected in patent US9526729B2, “Medicament for treating peripheral neuropathies” (priority 2013, dated 2016).
For at least one compound, name, drawing or mass did not settle the structure.

Details: Down P M et al. 1986; cited from earlier work

For `COC(=O)C1=C(C)NC(C)=C(C(=O)OC)C1c1ccccc1[N+](=O)[O-]` [Nifedipine], the effect in chilblains is given as “benefit”.
